Consider one compound from US11274111B2, “Arginase inhibitors and methods of use” (Merck Sharp & Dohme Corp., priority 2018, dated 2022).

Amino acid sequences for entries named in this document (tags omitted).
UniProt P05089, whole entry: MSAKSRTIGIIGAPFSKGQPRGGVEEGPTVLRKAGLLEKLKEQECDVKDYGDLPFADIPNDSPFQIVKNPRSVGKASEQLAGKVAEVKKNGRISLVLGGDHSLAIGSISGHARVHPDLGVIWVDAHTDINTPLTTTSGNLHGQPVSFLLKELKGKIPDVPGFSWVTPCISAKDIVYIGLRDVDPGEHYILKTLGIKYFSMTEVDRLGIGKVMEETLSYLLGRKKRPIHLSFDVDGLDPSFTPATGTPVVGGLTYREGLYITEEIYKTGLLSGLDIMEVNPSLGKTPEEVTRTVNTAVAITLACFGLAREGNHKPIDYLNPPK

The match of structure and compound is tentative.

The target of this assay is Arginase (Homo sapiens, UniProt P05089). Kind of assay: Arginase Thioornithine Generating Assay (TOGA). The note with it: tested form: t-butylamine and HCl salt. The method, then: Arginase Thioornithine Generating Assay (TOGA)
Compounds were serially diluted in ten 3-fold steps in DMSO starting from 10 mM DMSO stocks. Compound dilutions or DMSO alone were then dispensed from the dilution plate into a Greiner black 384-well assay plate (catalog #781086) using an Echo 555 acoustic liquid handler (Labcyte).
Arginase protein was recombinantly expressed in Escherichia coli. […] Plates were briefly shaken to mix and the fluorescence was measured in an Spectramax plate reader (Molecular Devices) with a 410 nm excitation wavelength and an 490 nm emission wavelength.
Potencies were calculated by […] to the four parameter logistic IC50 equation.

As to `CN[C@H]1C[C@@H]2C[C@@](N)(C(=O)O)[C@@H](CCCB(O)O)[C@@H]2[C@H]1F`, the “Percent Inhibition at Top Dose” value (Top Dose 10000 nM) is given as 99.64%. Besides, the IC50 (read-out: TOGA IC50, recombinant arginase 1.88 nM, thioarginine substrate) stood at 4.56 nM.

Broadly, the IC50 is the concentration needed to halve the response being measured.
